Data as given in patent US20080069857A1, “Compositions And Methods For Inhibiting Adhesions” (priority 2006, published 2008).
At least one compound was matched to its structure with a doubt left.

Tests used:
[1] = systemically; cited from earlier work
[2] = tested on: IL-6 production by primary mouse macrophages; assay: IL-6 production by LPS-challenged macrophages; assay type: cell-based, mouse (C57/B16); conditions: macrophages stimulated with LPS 100 ng/ml; drug or hydrogel release media
Method: C57/B16 mice were purchased from Taconic (Hudson, N.Y.). 2 ml of 3% (w/v) sterile thioglycollate solution (DIFCO Laboratories, Detroit, Mich.) was injected into the peritoneal cavity. Four days after injection, the mice were euthanized by CO2, and 6 ml of ice-cold PBS buffer containing 5 mM EDTA was injected. After agitating the peritoneum with forceps, a macrophage-containing solution was aspirated. The cells were placed immediately into iced DMEM on ice prior to washing, counting and plating. Approximately 10^7 cells per mouse were obtained.
Non-adherent cells were removed by washing with 200 μl/well PBS buffer. Then 100 μl of DMEM with 10% FBS and 100 μl of medium pre-incunated with hydrogels (Sec. 2.2.9), or known concentrations of dexamethasone, were added to the adherent macrophages in each well. After incubation for 24 h at 37° C. in 5% CO2, 25 μl of 900 ng/ml of LPS (Sigma, St. Louis, Mo.; Catalog #L-4391) was added to each well to a final concentration of 100 ng/ml. After incubation for a further 16 h, the media were collected and stored at −80° C. until analyzed. The concentration of TNF-α, IL-6, and dexamethasone in those media were measured by ELISA (enzyme-linked immunosorbent assay). The ELISA kits for TNF-α, IL-6, and dexamethasone were purchased from R&D Systems (DuoSet, Cat DY406), BioLegend (Mouse IL-6 ELISA MAX™ Set (Deluxe)), and Neogen Corporation, respectively.

Row | Compound | glucocorticoid potency relative to cortisol [1] | effect on production of IL-6 [2]
1 | CCCC1O[C@@H]2C[C@H]3[C@@H]4CCC5=CC(=O)C=C[C@]5(C)[C@H]4[C@@H](O)C[C@]3(C)[C@]2(C(=O)CO)O1 (some centres unmarked) [Budesonide] | 40 times | 
2 | C[C@@H]1C[C@H]2[C@@H]3CCC4=CC(=O)C=C[C@]4(C)[C@@]3(F)[C@@H](O)C[C@]2(C)[C@@]1(O)C(=O)CO [Dexamethasone] |  | dose-dependent reduction
